From patent US20140038203A1, “METHODS FOR DETECTING OR PREDICTING KIDNEY DISEASE” (MUSC FOUNDATION FOR RESEARCH DEVELOPMENT, priority 2012, published 2014)

Chains of the proteins cited; added tags and fusions are not shown. Lines headed by an entry give the natural chain unless they say otherwise; changes in a name come on top.
UniProt Q02747: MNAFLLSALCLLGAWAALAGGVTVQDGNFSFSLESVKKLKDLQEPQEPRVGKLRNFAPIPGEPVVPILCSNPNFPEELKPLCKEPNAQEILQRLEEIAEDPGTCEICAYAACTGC

Assay: RRT study: LC-MS/MS urinary proteomics, AKI after cardiac surgery, RRT vs No RRT
Parameters: species or system human
Settings: for Mean No RRT / Mean RRT: urine; for Mean No RRT: AKI patients who did not require RRT (n=6); for Mean RRT: AKI patients who required RRT (n=6)
[1] = direction of differential abundance, patients who did vs did not require RRT/dialysis
[2] = patients who did vs did not require RRT/dialysis
[3] = direction of urinary abundance, patients who did vs did not require RRT/dialysis
[4] = patients who did vs did not require RRT/dialysis, read with the Up or Down column
[5] = RRT vs No RRT, positive = elevated in RRT group

| Molecule | Up or Down [1] | Mean Fold Change [2] | Up or Down [3] | Mean Fold Change [4] | other results |
| --- | --- | --- | --- | --- | --- |
| Cubilin | Down | 1.629 | – | – | – |
| Ig kappa chain V-I region AU | – | – | Up | 1.908 | – |
| Hepatitis A virus cellular receptor 2 | Down | 2.48 | – | – | – |
| Low-density lipoprotein receptor-related protein 2 | – | – | Up | 1.6173 | – |
| Ig heavy chain V-III region BUT | – | – | Up | – | – |
| Platelet factor 4 | Down | 1.19 | – | – | – |
| Tumor necrosis factor receptor superfamily member 12A | – | – | Up | 6.115 | – |
| Plasminogen | – | – | Up | 5.147 | – |
| Triosephosphate isomerase | – | – | Up | – | – |
| Peptidyl-prolyl cis-trans isomerase A | – | – | Up | 2.057 | – |
| Alpha-1-antitrypsin: urinary protein, Uniprot P01009 | – | – | Up | 11.11 | Mean Fold Change [5]: 11.11; Mean No RRT: 21.55 normalized spectral counts; Mean RRT: 239.32 normalized spectral counts |
| Trans-Golgi network integral membrane protein 2 | – | – | Up | – | – |
| Ig kappa chain V-IV region Len | Down | 1.345 | – | – | – |
| Fatty acid-binding protein, heart | – | – | Up | 4.242 | – |
| Fibronectin | – | – | Up | 3.1 | – |
| Alpha-1-acid glycoprotein 1: urinary protein, Uniprot P02763 | – | – | Up | 2.51 | Mean Fold Change [5]: 2.51; Mean No RRT: 44.94 normalized spectral counts; Mean RRT: 112.82 normalized spectral counts |
| Prothymosin alpha | – | – | Up | 9.757 | – |
| Ig kappa chain V-III region HAH | Down | 1.126 | – | – | – |
| V-set and immunoglobulin domain-containing protein 4 | – | – | Up | – | – |
| Apolipoprotein A-II | – | – | Up | 18.93 | – |
| Beta-defensin 1 (DHYNCVSSGGQCLYSACPIFTKIQGTCYRGKAKCCK; UniProt P60022 33-68, looked up) | Down | 1.942 | – | – | – |

| Molecule | Up or Down [1] | Mean Fold Change [2] | Up or Down [3] | Mean Fold Change [4] | other results |
| --- | --- | --- | --- | --- | --- |
| Ig kappa chain V-II region TEW | Down | 1.196 | – | – | – |
| Epididymai secretory protein E1: urinary protein, Uniprot P61916 | – | – | – | – | Mean Fold Change [5]: 3.279; Mean No RRT: 3.17 normalized spectral counts; Mean RRT: 10.39 normalized spectral counts |
| Gelsolin | – | – | Up | 1.172 | – |
| Latent-transforming growth factor beta-binding protein 2 | – | – | Up | 2.421 | – |
| Insulin-like growth factor-binding protein 3 | – | – | Up | 2.077 | – |
| Liver-expressed antimicrobial peptide 2 (MTPFWRGVSLRPIGASCRDDSECITRLCRKRRCSLSVAQE; UniProt Q969E1 38-77, looked up) | – | – | Up | 1.113 | – |
| Copper transport protein ATOX1 | – | – | Up | – | – |
| Complement factor D: urinary protein, Uniprot P00746 | – | – | Up | – | Mean RRT: 5.81 normalized spectral counts |
| COc1ccc(Cc2nccc3cc(OC)c(OC)cc23)cc1OC [Vasorin] | – | – | Up | 1.359 | – |
| Collagen alpha-1(VI) chain | Down | 1.543 | – | – | – |
| Alpha-2-macroglobulin | – | – | Up | 4.361 | – |
| Lysozyme C | – | – | Up | 16.82 | – |
| Lipocalin-1 | Down | 1.421 | – | – | – |
| Collagen alpha-1(XII) chain | Down | 2.88 | – | – | – |
| Amyloid beta A4 protein | Down | 1.82 | – | – | – |
| Maltase-glucoamylase, intestinal | Down | 1.917 | – | – | – |
| Myosin-Vb | Down | – | – | – | – |
| Desmocollin-2 | Down | 1.357 | – | – | – |
| Ig kappa chain V-III region NG9 (Fragment) | Down | 1.521 | – | – | – |
| Ig kappa chain V-I region AG | – | – | Up | 1.223 | – |
| Clusterin | – | – | Up | 2.645 | – |

| Molecule | Up or Down [1] | Mean Fold Change [2] | Up or Down [3] | Mean Fold Change [4] | other results |
| --- | --- | --- | --- | --- | --- |
| Osteopontin | Down | 1.369 | – | – | – |
| CD44 antigen | Down | 2.25 | – | – | – |
| Glyceraldehyde-3-phosphate dehydrogenase | – | – | Up | 3.688 | – |
| Chitinase-3-like protein 1 | – | – | Up | – | – |
| Platelet glycoprotein VI | Down | 2.277 | – | – | – |
| Guanylin (PGTCEICAYAACTGC; Guanylin; UniProt Q02747 101-115, looked up) | – | – | Up | 1.503 | – |
| Ribonuclease pancreatic | Down | 1.075 | – | – | – |
| Pyruvate kinase isozymes M1/M2 | – | – | Up | 4.25 | – |
| Thrombospondin-1 | – | – | Up | 1.823 | – |
| Trefoil factor 3 (EEYVGLSANQCAVPAKDRVDCGYPHVTPKECNNRGCCFDSRIPGVPWCFKPLQEAECTF; UniProt Q07654 22-80, looked up) | Down | 2.234 | – | – | – |
| Apolipoprotein A-I | – | – | Up | 14.21 | – |
| Gamma-interferon-inducible lysosomal thiol reductase | Down | 1.44 | – | – | – |
| Fibrinogen beta chain: urinary protein, Uniprot P02675 | – | – | Up | 3.921 | Mean Fold Change [5]: 3.921; Mean No RRT: 3.65 normalized spectral counts; Mean RRT: 14.29 normalized spectral counts |
| Prostate-specific antigen | – | – | Up | 2.099 | – |
| Ig kappa chain V-III region VG (Fragment) | – | – | Up | 1.187 | – |
| Complement component C8 gamma chain | – | – | Up | 101.8623 | – |
| Carbonic anhydrase 1 | – | – | Up | 2.211 | – |
| Complement factor B | – | – | Up | 2.069 | – |
| Apolipoprotein C-III | – | – | Up | – | – |
| Ig gamma-1 chain C region | – | – | Up | 2.454 | – |
